No constants are given. Whether binding was seen depends on the method and setting. Binding seen in cells or lysates may run through a third protein. Some results given as binding are weak or reduced against the parent protein; the word gives no strength.
Target: RSV nucleocapsid (N) protein (human respiratory syncytial virus, A2 strain) (UniProt P03418)
Experiment: coimmunoprecipitation with anti-P monoclonal antibodies, 35S-labeled transfected HEp-2 cells, 37 or 39° C.

Amino acid sequences for entries named in this document (tags omitted).
UniProt P03418: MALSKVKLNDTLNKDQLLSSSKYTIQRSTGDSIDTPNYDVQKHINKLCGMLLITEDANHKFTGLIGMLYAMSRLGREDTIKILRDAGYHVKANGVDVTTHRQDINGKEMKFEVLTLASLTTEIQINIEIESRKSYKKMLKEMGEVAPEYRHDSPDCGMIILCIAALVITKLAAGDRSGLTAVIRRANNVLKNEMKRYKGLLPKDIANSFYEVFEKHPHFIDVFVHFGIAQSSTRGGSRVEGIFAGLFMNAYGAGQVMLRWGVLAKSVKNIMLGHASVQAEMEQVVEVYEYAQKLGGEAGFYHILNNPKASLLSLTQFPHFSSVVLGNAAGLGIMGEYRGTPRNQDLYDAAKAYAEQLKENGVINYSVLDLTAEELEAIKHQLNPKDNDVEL

RSV A2 P protein 174-176A (R174A/E175A/E176A) (from UniProt P03421 1-241)
binding: binds

RSV A2 P protein G172S/E176G (from UniProt P03421 1-241)
binding: binds

From patent US20050176130A1
